Experimental data: the supplement of paper PMC6418307
Single values of this set are uncertain.

Tested on: primary mouse cortical neurons
Assay: cell health score (luciferase spike-in reads / total reads per well) (fraction); higher = fewer cellular reads, worse cell health / toxicity
Details: treatment time 24 h
[1] = 0.01 µM, sex of neuron culture: Female
[2] = 0.01 µM, sex of neuron culture: Male
[3] = 0.1 µM, sex of neuron culture: Female
[4] = 0.1 µM, sex of neuron culture: Male
[5] = 1 µM, sex of neuron culture: Female
[6] = 1 µM, sex of neuron culture: Male
[7] = 10 µM, sex of neuron culture: Female
[8] = 10 µM, sex of neuron culture: Male

## COc1ccc(C[C@H](N)C(=O)N[C@H]2[C@@H](O)[C@H](n3cnc4c(N(C)C)ncnc43)O[C@@H]2CO)cc1 [Puromycin]
[1]
  cell health score: 0.000471
[2]
  cell health score: 0.000825
[3]
  cell health score: 0.000646
[4]
  cell health score: 0.00076
[5]
  cell health score: 0.00627
[6]
  cell health score: 0.00376
[7]
  cell health score: 0.0016
[8]
  cell health score: 0.0062

## CC1=NNC(=O)N(/N=C/c2cccnc2)C1 [Pymetrozine]
[1]
  cell health score: 0.000495
[2]
  cell health score: 0.00088
[3]
  cell health score: 0.00135
[4]
  cell health score: 0.000801
[5]
  cell health score: 0.000886
[6]
  cell health score: 0.000764
[7]
  cell health score: 0.00122
[8]
  cell health score: 0.000483

## COC(=O)N(OC)c1ccccc1COc1ccn(-c2ccc(Cl)cc2)n1 [Pyraclostrobin]
[1]
  cell health score: 0.00497
[2]
  cell health score: 0.0144
[3]
  cell health score: 0.00825
[4]
  cell health score: 0.0102
[5]
  cell health score: 0.0103
[6]
  cell health score: 0.0115
[7]
  cell health score: 0.0147
[8]
  cell health score: 0.0117

## CCOC(=O)COc1cc(-c2nn(C)c(OC(F)F)c2Cl)c(F)cc1Cl [Pyraflufen-ethyl]
[1]
  cell health score: 0.000598
[2]
  cell health score: 0.00104
[3]
  cell health score: 0.00194
[4]
  cell health score: 0.000782
[5]
  cell health score: 0.00134
[6]
  cell health score: 0.000852
[7]
  cell health score: 0.000623
[8]
  cell health score: 0.00239

## CC(C)(C)c1ccc(CSc2cnn(C(C)(C)C)c(=O)c2Cl)cc1 [Pyridaben]
[1]
  cell health score: 0.0222
[2]
  cell health score: 0.0136
[3]
  cell health score: 0.0152
[4]
  cell health score: 0.00908
[5]
  cell health score: 0.0112
[6]
  cell health score: 0.0106
[7]
  cell health score: 0.0095
[8]
  cell health score: 0.0122

## Cc1cc(C)nc(Nc2ccccc2)n1 [Pyrimethanil]
[1]
  cell health score: 0.000695
[2]
  cell health score: 0.000952
[3]
  cell health score: 0.00116
[4]
  cell health score: 0.000785
[5]
  cell health score: 0.000794
[6]
  cell health score: 0.000642
[7]
  cell health score: 0.00102
[8]
  cell health score: 0.00047

## CC(COc1ccc(Oc2ccccc2)cc1)Oc1ccccn1 (stereo not drawn) [Pyriproxyfen]
[1]
  cell health score: 0.000495
[2]
  cell health score: 0.000702
[3]
  cell health score: 0.000698
[4]
  cell health score: 0.000664
[5]
  cell health score: 0.000782
[6]
  cell health score: 0.000482
[7]
  cell health score: 0.0007
[8]
  cell health score: 0.000468

## COc1cc(OC)nc(Sc2cccc(Cl)c2C(=O)O)n1 [Pyrithiobac-sodium]
[1]
  cell health score: 0.000605
[2]
  cell health score: 0.000657
[3]
  cell health score: 0.000964
[4]
  cell health score: 0.000922
[5]
  cell health score: 0.00103
[6]
  cell health score: 0.000719
[7]
  cell health score: 0.00102
[8]
  cell health score: 0.000805

## O=C(O)c1c(Cl)ccc2cc(Cl)cnc12 [Quinclorac]
[1]
  cell health score: 0.000612
[2]
  cell health score: 0.000534
[3]
  cell health score: 0.000758
[4]
  cell health score: 0.000817
[5]
  cell health score: 0.000763
[6]
  cell health score: 0.000751
[7]
  cell health score: 0.00108
[8]
  cell health score: 0.000493

## Fc1ccc(Oc2ccnc3cc(Cl)cc(Cl)c23)cc1 [Quinoxyfen]
[1]
  cell health score: 0.000633
[2]
  cell health score: 0.000597
[3]
  cell health score: 0.000684
[4]
  cell health score: 0.000781
[5]
  cell health score: 0.000639
[6]
  cell health score: 0.000642
[7]
  cell health score: 0.00118
[8]
  cell health score: 0.000535

## CCOC(=O)C(C)Oc1ccc(Oc2cnc3cc(Cl)ccc3n2)cc1 (stereo not drawn) [Quizalofop-ethyl]
[1]
  cell health score: 0.000544
[2]
  cell health score: 0.000694
[3]
  cell health score: 0.000584
[4]
  cell health score: 0.000607
[5]
  cell health score: 0.000581
[6]
  cell health score: 0.000462
[7]
  cell health score: 0.000694
[8]
  cell health score: 0.000523

## CC(C)=CC1C(C(=O)OCc2coc(Cc3ccccc3)c2)C1(C)C (stereo not drawn) [Resmethrin]
[1]
  cell health score: 0.000842
[2]
  cell health score: 0.000964
[3]
  cell health score: 0.00105
[4]
  cell health score: 0.000887
[5]
  cell health score: 0.000919
[6]
  cell health score: 0.000715
[7]
  cell health score: 0.000807
[8]
  cell health score: 0.000579

## C=C(C)[C@H]1Cc2c(ccc3c2O[C@@H]2COc4cc(OC)c(OC)cc4[C@@H]2C3=O)O1 [Rotenone]
[1]
  cell health score: 0.0133
[2]
  cell health score: 0.0132
[3]
  cell health score: 0.0194
[4]
  cell health score: 0.0182
[5]
  cell health score: 0.0192
[6]
  cell health score: 0.0116
[7]
  cell health score: 0.0165
[8]
  cell health score: 0.00947

## C=CCC1=C(C)[C@@H](OC(=O)[C@@H]2[C@@H](C=C(C)C)C2(C)C)CC1=O [S-Bioallethrin]
[1]
  cell health score: 0.000641
[2]
  cell health score: 0.00103
[3]
  cell health score: 0.000839
[4]
  cell health score: 0.000786
[5]
  cell health score: 0.000716
[6]
  cell health score: 0.000847
[7]
  cell health score: 0.000918
[8]
  cell health score: 0.000764

## CN1[C@@H]2C[C@@H](OC(=O)[C@H](CO)c3ccccc3)C[C@H]1[C@@H]1O[C@@H]12 [Scopolamine]
[1]
  cell health score: 0.000624
[2]
  cell health score: 0.000635
[3]
  cell health score: 0.00076
[4]
  cell health score: 0.000891
[5]
  cell health score: 0.000661
[6]
  cell health score: 0.000772
[7]
  cell health score: 0.000712
[8]
  cell health score: 0.00156

## CC1CCC(NC(=O)N(CCCl)N=O)CC1 (stereo not drawn) [Semustine]
[1]
  cell health score: 0.0005
[2]
  cell health score: 0.000625
[3]
  cell health score: 0.000777
[4]
  cell health score: 0.000817
[5]
  cell health score: 0.000698
[6]
  cell health score: 0.00073
[7]
  cell health score: 0.00092
[8]
  cell health score: 0.000565

## CCC/C(=N\OCC)C1=C(O)CC(CC(C)SCC)CC1=O (stereo not drawn) [Sethoxydim]
[1]
  cell health score: 0.000588
[2]
  cell health score: 0.00102
[3]
  cell health score: 0.000848
[4]
  cell health score: 0.000954
[5]
  cell health score: 0.000832
[6]
  cell health score: 0.000627
[7]
  cell health score: 0.00114
[8]
  cell health score: 0.000623

## CCNc1nc(Cl)nc(NCC)n1 [Simazine]
[1]
  cell health score: 0.000441
[2]
  cell health score: 0.000638
[3]
  cell health score: 0.00127
[4]
  cell health score: 0.00094
[5]
  cell health score: 0.00109
[6]
  cell health score: 0.000591
[7]
  cell health score: 0.00123
[8]
  cell health score: 0.000928

## [N-]=[N+]=[N-] [Sodium Azide]
[1]
  cell health score: 0.000537
[2]
  cell health score: 0.000777
[3]
  cell health score: 0.00116
[4]
  cell health score: 0.000877
[5]
  cell health score: 0.00126
[6]
  cell health score: 0.000948
[7]
  cell health score: 0.00086
[8]
  cell health score: 0.00105

## O=[As][O-].[Na+] [Sodium arsenite]
[1]
  cell health score: 0.000677
[2]
  cell health score: 0.000696
[3]
  cell health score: 0.000847
[4]
  cell health score: 0.00105
[5]
  cell health score: 0.00138
[6]
  cell health score: 0.00072
[7]
  cell health score: 0.0184
[8]
  cell health score: 0.0142

## CCC(C)(C)C(=O)OC1=C(c2ccc(Cl)cc2Cl)C(=O)OC12CCCCC2 [Spirodiclofen]
[1]
  cell health score: 0.000698
[2]
  cell health score: 0.000848
[3]
  cell health score: 0.0014
[4]
  cell health score: 0.000645
[5]
  cell health score: 0.000747
[6]
  cell health score: 0.0005
[7]
  cell health score: 0.00125
[8]
  cell health score: 0.00163

## CCCN(CC)CC1COC2(CCC(C(C)(C)C)CC2)O1 (stereo not drawn) [Spiroxamine]
[1]
  cell health score: 0.000359
[2]
  cell health score: 0.00104
[3]
  cell health score: 0.00138
[4]
  cell health score: 0.000667
[5]
  cell health score: 0.000703
[6]
  cell health score: 0.000559
[7]
  cell health score: 0.000501
[8]
  cell health score: 0.00168

## Cc1nn(-c2cc(NS(C)(=O)=O)c(Cl)cc2Cl)c(=O)n1C(F)F [Sulfentrazone]
[1]
  cell health score: 0.000594
[2]
  cell health score: 0.000987
[3]
  cell health score: 0.0011
[4]
  cell health score: 0.000808
[5]
  cell health score: 0.00127
[6]
  cell health score: 0.000601
[7]
  cell health score: 0.00115
[8]
  cell health score: 0.000851

## C[S+]([O-])CCCCN=C=S (stereo not drawn) [Sulforaphane]
[1]
  cell health score: 0.00042
[2]
  cell health score: 0.000945
[3]
  cell health score: 0.00131
[4]
  cell health score: 0.00123
[5]
  cell health score: 0.000908
[6]
  cell health score: 0.000428
[7]
  cell health score: 0.0015
[8]
  cell health score: 0.00115

## O=c1n(Cl)c(=O)n(Cl)c(=O)n1Cl [Symclosene]
[1]
  cell health score: 0.000436
[2]
  cell health score: 0.000669
[3]
  cell health score: 0.000645
[4]
  cell health score: 0.000714
[5]
  cell health score: 0.000651
[6]
  cell health score: 0.000624
[7]
  cell health score: 0.000602
[8]
  cell health score: 0.000907

## CC(=O)O[C@H]1C(=O)[C@@]2(C)[C@H]([C@H](OC(=O)c3ccccc3)[C@]3(O)C[C@H](OC(=O)[C@H](O)[C@@H](NC(=O)c4ccccc4)c4ccccc4)C(C)=C1C3(C)C)[C@]1(OC(C)=O)CO[C@@H]1C[C@@H]2O [Taxol]
[1]
  cell health score: 0.000648
[2]
  cell health score: 0.000942
[3]
  cell health score: 0.000711
[4]
  cell health score: 0.00123
[5]
  cell health score: 0.000556
[6]
  cell health score: 0.000905
[7]
  cell health score: 0.00109
[8]
  cell health score: 0.000438
